# The full ranking holds about 33,000 sequences; the median of “E-score (-0.5 to 0.5)” is about -0.016, and the highest 2% start at about 0.3. The list shows a part of the results.
# Target: T1, Yer184c (UniProt P39961)
# T1 sequence: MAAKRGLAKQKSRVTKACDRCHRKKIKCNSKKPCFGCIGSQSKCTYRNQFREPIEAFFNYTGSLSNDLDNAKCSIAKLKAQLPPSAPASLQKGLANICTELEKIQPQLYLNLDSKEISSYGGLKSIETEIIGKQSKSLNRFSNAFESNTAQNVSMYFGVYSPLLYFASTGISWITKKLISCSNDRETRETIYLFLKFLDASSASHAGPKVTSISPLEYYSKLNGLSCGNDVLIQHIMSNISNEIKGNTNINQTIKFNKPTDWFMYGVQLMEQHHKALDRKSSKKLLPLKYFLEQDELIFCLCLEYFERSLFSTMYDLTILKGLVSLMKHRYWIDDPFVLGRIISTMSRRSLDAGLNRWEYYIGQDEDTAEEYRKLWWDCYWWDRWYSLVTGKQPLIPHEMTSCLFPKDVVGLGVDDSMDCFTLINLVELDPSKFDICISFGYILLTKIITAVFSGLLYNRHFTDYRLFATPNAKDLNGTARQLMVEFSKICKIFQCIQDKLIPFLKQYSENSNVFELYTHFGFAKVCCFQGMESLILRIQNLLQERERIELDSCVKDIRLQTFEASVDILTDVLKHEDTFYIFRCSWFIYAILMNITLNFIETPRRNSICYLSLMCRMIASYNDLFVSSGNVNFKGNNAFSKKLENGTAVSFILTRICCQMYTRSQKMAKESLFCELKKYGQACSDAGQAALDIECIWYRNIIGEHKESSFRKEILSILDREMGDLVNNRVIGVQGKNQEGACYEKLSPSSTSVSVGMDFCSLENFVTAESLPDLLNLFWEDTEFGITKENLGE
# Assay: PBM E-score (8-mer binding enrichment) (E-score (-0.5 to 0.5)); higher = stronger / more preferred TF binding
# Details: protein concentration: 100 nM; construct: GST-full length
# Method in brief: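 Using PURExpress in vitro transcription/translation, GST-tagged yeast transcription factors were made in full-length or DNA-binding-domain form. These were applied at about 100-200 nM to double-stranded universal all-10-mer Agilent arrays, and bound protein was detected with fluorescent anti-GST. Scans were normalised with masliner before the Universal PBM Analysis Suite assigned E-scores to ungapped eight-base words pooled with their reverse complements.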
row,Sequence,PBM E-score
1,CAGCCCTG,-0.32
2,CAATCCCA,-0.222
3,ATACATGG,-0.128
4,CGCTTGAA,0.157
5,ATTAATGA,0.233
6,ACGTGAGG,-0.163
7,ATCAGAGG,-0.0892
8,AAACAATC,0.195
9,AATTTACG,0.15
10,ACCAGTCG,0.0286
11,AAGTCGGC,-0.00472
12,CAGAGAAA,0.077
13,ATCGTGTC,0.0556
14,AGGCGAAT,-0.0604
15,GGTACGAA,0.184
16,GCTCACAC,-0.174
17,ATGCTGGG,-0.0916
18,GAGATGCA,-0.0644
19,AGGAGGAG,-0.204
20,CTTTGATA,0.193
21,CGGTGTTC,0.19
22,CAAAAGAA,0.188
23,CTCTGTGC,-0.153
24,CCATGCTC,-0.169
25,CTTGTCTC,0.0611

row,Sequence,PBM E-score
1,CAAGATTA,0.104
2,AAAGCCCC,-0.217
3,CAAAGCAG,0.0461
4,AGGGGCGC,-0.17
5,AAGGAGCC,-0.173
6,AAACTTTC,0.0692
7,ACAGGCGT,-0.283
8,ACTTATAT,0.224
9,ATCTTTAA,0.268
10,ATATAAAA,0.278
11,AGAGGCCG,-0.155
12,CCGGCACA,0.314
13,ACGGTTTA,0.0371
14,ACTTATCT,0.0585
15,ATTGATGC,0.00101
16,GCATAACA,-0.024
17,CGATCGAG,0.184
18,CACGAGAA,-0.08
19,GCGGTTAA,0.0539
20,GACCTAGC,-0.0926
21,CCATCGGA,0.0759
22,CTCGTGAA,-0.0324
23,GCTTTTAC,0.124
24,GTGAACGA,0.0207
25,ACTCTAGA,-0.0328

# Individual results from the list.
# Value of ACTTATCT under PBM E-score: 0.0585
# Value of ACTCTAGA under PBM E-score: -0.0328
# Value of ACGGTTTA under PBM E-score: 0.0371

# Carrying on:

row,Sequence,PBM E-score
1,ATCTTGGA,0.0492
2,GCGGCCGC,0.261
3,ACACTCAT,0.0657
4,ACGAAGTC,-0.0791
5,CATGCCCA,-0.23
6,ACGAAAGG,0.0428
7,CCCTAATC,-0.152
8,ATAAACGA,0.302
9,AGCGTGTG,-0.00594
10,CAACGACG,-0.0442
11,CTGAATCA,-0.0638
12,GCATGGAC,-0.142
13,CAGACCGG,0.155
14,CGAGACAC,-0.0978
15,GTTGTTTA,0.0968
16,AGGCCAAC,-0.0363
17,AAAGCCGT,0.262
18,CTGAATGA,0.0973
19,GCACGGGC,-0.128
20,ATCTTTTA,0.0257
21,AACCGTTG,0.0405
22,CGTGGACA,-0.0399
23,ACGGTCGA,0.0465
24,CGCATGCG,-0.0045
25,ACAGGGCC,-0.0849

row,Sequence,PBM E-score
1,CTAGGAAC,-0.0607
2,CTACAGCC,-0.142
3,AAAACTGC,0.0178
4,AACGTAAA,0.0325
5,ATAGGTCC,0.029
6,ATGATGTG,-0.0294
7,AGATTTTC,0.144
8,CGTCAGAC,-0.169
9,CACGGCAG,0.0946
10,AACGGCGC,-0.0504
11,GTCTTTTA,-0.072
12,CGTCCGAA,0.239
13,ACGCGTCT,-0.225
14,GACGTCAA,-0.0915
15,GCAAGTGC,-0.223
16,AACCCTAA,0.0271
17,AGCCCCTG,-0.408
18,ATAGAAGG,-0.104
19,AGTGCCCG,0.0695
20,CTGCGCTC,-0.212
21,ATGTGGCG,-0.161
22,GTGTATAA,-0.195
23,GCCCTCGC,-0.152
24,CCCGGGCC,0.217
25,CCGACTGA,0.00051

# An excerpt of these results, bar-delimited.
row | Sequence | PBM E-score
2 | CTACAGCC | -0.142
5 | ATAGGTCC | 0.029
12 | CGTCCGAA | 0.239
22 | GTGTATAA | -0.195

# Going on with the list:

row,Sequence,PBM E-score
1,AATAGGGT,-0.0516
2,CCGACGCC,0.127
3,CACACTCA,0.168
4,AGCCTCCC,-0.288
5,ATACACTA,0.0555
6,ACACAAAG,-0.00525
7,CAAGTATG,0.018
8,TCGAGCGA,0.0474
9,CCGCACAC,-0.0891
10,CAAATCAA,0.00381
11,CCTGATTA,0.0969
12,AGATCGGA,0.34
13,AATTGTCC,0.101
14,ACAGTACA,-0.0103
15,CAGATATA,0.201
16,CACGCTCC,-0.187
17,CGAATCCG,0.269
18,AGCCTTTC,-0.184
19,GAAGTCAA,0.0553
20,ATTCAACA,0.173
21,CCTTTAAC,0.156
22,AATCCTTA,-0.0386
23,ATTCGCGA,-0.0163
24,CCCCCCCG,-0.398
25,AAAAGCCT,-0.179

row,Sequence,PBM E-score
1,ATAGTCAT,0.0263
2,CGCCGGCA,0.345
3,CAAAGGCC,-0.247
4,ACGGGCCA,-0.131
5,GACTGTGC,-0.202
6,CCCCTGCG,-0.338
7,CCGACCCA,0.0239
8,AACAGTAC,0.109
9,CTTGAGGC,-0.148
10,AAGTACGC,-0.188
11,ATTGTACA,0.111
12,TTATGCAA,0.00822
13,ACGCTGGC,-0.12
14,ACTGAACG,-0.129
15,GTGACAGA,0.0748
16,AGACAGTG,-0.0878
17,AGACTTTA,-0.00366
18,AGCACAGA,0.181
19,GAAATCTA,0.162
20,AGAATTCT,0.294
21,CCTGTCGC,-0.17
22,ATGTCTGG,0.00901
23,AGGGAATG,-0.206
24,GTAGTTTA,0.14
25,CCTTTTTC,0.167

row,Sequence,PBM E-score
1,GAATAGCA,-0.0272
2,GAAACGAC,0.00667
3,ACCCCGTA,-0.137
4,AAAAAAAC,0.106
5,CAAGGACG,-0.207
6,ACCTAACA,0.142
7,GCTGCACA,-0.159
8,ACTTGAGG,-0.26
9,CAAAAGGA,0.125
10,AGAGAGCT,-0.195
11,CCAGGCCG,0.14
12,CGCACATA,-0.219
13,AGTTGGGG,-0.135
14,ATTCAAGA,0.0949
15,GACGAACA,0.242
16,GGCAGAAA,0.296
17,CGCTAGTC,-0.269
18,GTCCTCAC,-0.111
19,AAGTACAC,-0.0152
20,CTCGTCTA,-0.00971
21,AACGGCTA,0.188
22,ATAGGCCC,-0.281

# — the supplement of paper PMC3334620
